Data published in paper PMC3717291.
These are yes or no findings as the source states them, for the method shown. In cells and extracts the contact can be indirect. Some results given as binding are weak or reduced against the parent protein; the word gives no strength.

Protein sequences, listed by entry. Tags and fused reporters are not part of them.
UniProt P05549: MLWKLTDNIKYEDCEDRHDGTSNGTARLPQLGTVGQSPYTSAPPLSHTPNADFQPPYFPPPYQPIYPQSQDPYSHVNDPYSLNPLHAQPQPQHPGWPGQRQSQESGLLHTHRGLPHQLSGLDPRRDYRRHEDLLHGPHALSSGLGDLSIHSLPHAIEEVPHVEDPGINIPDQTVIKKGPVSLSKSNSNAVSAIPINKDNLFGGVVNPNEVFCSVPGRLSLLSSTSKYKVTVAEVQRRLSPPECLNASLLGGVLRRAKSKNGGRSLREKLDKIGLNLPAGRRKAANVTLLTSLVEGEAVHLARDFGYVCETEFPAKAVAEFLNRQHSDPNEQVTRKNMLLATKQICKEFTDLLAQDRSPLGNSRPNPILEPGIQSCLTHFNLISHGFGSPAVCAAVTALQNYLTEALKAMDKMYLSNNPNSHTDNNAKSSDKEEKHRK

Target: activator protein 2α (human (endogenous in hESC)) (UniProt P05549)
Assay: co-IP; 600 μg of hESC proteins immunoprecipitated with anti-rabbit IgG or anti-AP2α at 4°C for 12 h; washed precipitates detected by western blotting

B1: calcium-activated neutral protease 7 (enzyme, UniProt Q9Y6W3 1-813)
chain: MDATALERDAVQFARLAVQRDHEGRYSEAVFYYKEAAQALIYAEMAGSSLENIQEKITEYLERVQALHSAVQSKSADPLKSKHQLDLERAHFLVTQAFDEDEKENVEDAIELYTEAVDLCLKTSYETADKVLQNKLKQLARQALDRAEALSEPLTKPVGKISSTSVKPKPPPVRAHFPLGANPFLERPQSFISPQSCDAQGQRYTAEEIEVLRTTSKINGIEYVPFMNVDLRERFAYPMPFCDRWGKLPLSPKQKTTFSKWVRPEDLTNNPTMIYTVSSFSIKQTIVSDCSFVASLAISAAYERRFNKKLITGIIYPQNKDGEPEYNPCGKYMVKLHLNGVPRKVIIDDQLPVDHKGELLCSYSNNKSELWVSLIEKAYMKVMGGYDFPGSNSNIDLHALTGWIPERIAMHSDSQTFSKDNSFRMLYQRFHKGDVLITASTGMMTEAEGEKWGLVPTHAYAVLDIREFKGLRFIQLKNPWSHLRWKGRYSENDVKNWTPELQKYLNFDPRTAQKIDNGIFWISWDDLCQYYDVIYLSWNPGLFKESTCIHSTWDAKQGPVKDAYSLANNPQYKLEVQCPQGGAAVWVLLSRHITDKDDFANNREFITMVVYKTDGKKVYYPADPPPYIDGIRINSPHYLTKIKLTTPGTHTFTLVVSQYEKQNTIHYTVRVYSACSFTFSKIPSPYTLSKRINGKWSGQSAGGCGNFQETHKNNPIYQFHIEKTGPLLIELRGPRQYSVGFEVVTVSTLGDPGPHGFLRKSSGDYRCGFCYLELENIPSGIFNIIPSTFLPKQEGPFFLDFNSIIPIKITQLQ
- binding: binds
